Experimental data as given in publication PMC3699650, “Structural Insights into the Abscisic Acid Stereospecificity by the ABA Receptors PYR/PYL/RCAR” (PLoS ONE, 2013).
Results are given in words; binding and its absence hold for the method and conditions named. Tags and fused reporters may be left off the sequences shown.

Biological target: PYL5 (6×His-tagged) (Arabidopsis thaliana) (UniProt Q9FLB1)
Assay: SEC; size exclusion chromatography of purified PYL9 and PYL5; both purified

binding: no binding
B1: PYL5 (6×His-tagged) (receptor, UniProt Q9FLB1 1-203)
chain: MRSPVQLQHGSDATNGFHTLQPHDQTDGPIKRVCLTRGMHVPEHVAMHHTHDVGPDQCCSSVVQMIHAPPESVWALVRRFDNPKVYKNFIRQCRIVQGDGLHVGDLREVMVVSGLPAVSSTERLEILDEERHVISFSVVGGDHRLKNYRSVTTLHASDDEGTVVVESYIVDVPPGNTEEETLSFVDTIVRCNLQSLARSTNRQ
